Values of other authors in patent US10751329B2, “Treatment of CDKL5 disorders with GSK3β inhibitor tideglusib” (priority 2016, dated 2020).
At least one compound was matched to its structure with a doubt left.

System: neural precursors from CDKL5 KO mice
Conditions: in vitro; cited from earlier work

SMILES: [Li] [Lithium]
- neuron survival and maturation: restored neuron survival and maturation in the CDKL5 KO cells
